Literature values, collected in patent US7071376B2, “Genes encoding p-coumarate 3-hydroxylase (C3H) and methods of use” (Purdue Research Foundation, priority 2000, dated 2006).
At least one structure is not confirmed: it was looked up by name or label, or the drawing left a doubt.

Legend:
[1] = test system: C3H; conditions: electron donor for C3H (Kojima and Takeuchi, 1989); cited from earlier work
[2] = molecular target: T1, F5H (Arabidopsis thaliana, UniProt Q42600); conditions: substrate of F5H; cited from earlier work
T1 construct: host or cells: yeast
T1 sequence (Q42600 1-520): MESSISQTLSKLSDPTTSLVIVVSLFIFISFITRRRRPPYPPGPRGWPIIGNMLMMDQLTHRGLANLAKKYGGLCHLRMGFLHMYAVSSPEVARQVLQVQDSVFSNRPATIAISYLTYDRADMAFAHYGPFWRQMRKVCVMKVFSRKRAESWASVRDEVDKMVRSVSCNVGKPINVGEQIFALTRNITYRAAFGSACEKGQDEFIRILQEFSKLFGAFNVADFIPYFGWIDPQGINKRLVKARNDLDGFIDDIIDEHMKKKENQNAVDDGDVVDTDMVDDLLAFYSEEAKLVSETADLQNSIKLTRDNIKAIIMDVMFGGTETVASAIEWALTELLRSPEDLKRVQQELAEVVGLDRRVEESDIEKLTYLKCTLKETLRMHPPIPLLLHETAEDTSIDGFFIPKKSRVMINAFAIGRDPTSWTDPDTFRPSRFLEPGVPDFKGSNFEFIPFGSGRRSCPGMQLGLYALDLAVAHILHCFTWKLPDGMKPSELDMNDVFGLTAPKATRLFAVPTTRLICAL

## O=C1O[C@H]([C@@H](O)CO)C(O)=C1O [ascorbate]
[1]
  Km: ≤ 10 mM

## COc1cc(/C=C/C(=O)O)ccc1O [ferulate]
[2]
  Vmax: 4 pKat mg^−1
